Results reported in patent publication US20220411523A1.
Results are given in words; binding and its absence hold for the method and conditions named. Some binding calls cover weakened binding; strength is not graded here.

Target: monkey 4-1BB on the cell membrane surface of CHO-K1 cells (monkey)
Experiment: FACS, CHO-K1-cy4-1BB cells

- binding: binds
B1: Hanke10F4 (antibody, human IgG4 S228P, kappa, V domains shown)
VH: QVQLQESGPGLVKPSETLSITCTVSGSSLTSYGVHWVRQPPGKGLEGLGVIWPGGSTNYNSALMSRLTISKDNSKSQVSLKMSSLTAADTAMYYCARVTGTWYFDVWGQGTTVTVSS
VL: DIQMTQSPSSLSASLGDRVTISCSASQGISNYLNWYQQKPDGTVKLLIYYTSTLHSGVPSRFSGSGSGTDFTLTISSLQPEDVATYYCQQYSKLPWTFGGGTKLEIKR
